# According to the supplement of paper PMC8728848:
# The list shows a part of the results.
# B1: CBP21 (Serratia marcescens), O83009 (protein)
# chain: MNKTSRTLLSLGLLSAAMFGVSQQANAHGYVESPASRAYQCKLQLNTQCGSVQAEPQSVEGLKGFPQAGPADGHIASADKSTFFELDQQTPTRWNKLNLKTGPNSFTWKLTARHSTTSWRYFITKPNWDASQPLTRASFDLTPFCQFNDGGAIPAAQVTHQCNIPADRSGSHVILAVWDIADTANAFYQAIDVNLSK
# Key:
# Test in all cases: glycan array binding signal (z-score within array); higher = stronger binding
# Settings in all cases: glycan notation: IUPAC condensed, linker removed; mutation: Y54A
# [1] = biological target: Gal(b1-4)GlcNAc(b1-3)Gal(b1-4)GlcNAc(b1-3)[Gal(b1-4)GlcNAc(b1-3)Gal(b1-4)GlcNAc(b1-6)]GalNAc
# Outline: (§1)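 The Consortium for Functional Glycomics database supplied 3228 glycan arrays, of which those lacking an available protein sequence were dropped. The binding signal, a within-array Z-score, was averaged across arrays of the same protein sequence and across linkers. Negative scores can be read as non-binding.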
# [2] = biological target: Gal(b1-4)GlcNAc(b1-3)Gal(b1-4)GlcNAc(b1-6)[Gal(b1-3)]GalNAc
# Outline: as §1
# [3] = biological target: Gal(b1-4)GlcNAc(b1-3)Gal(b1-4)[Fuc(a1-3)]GlcNAc(b1-3)Gal(b1-4)[Fuc(a1-3)]GlcNAc
# Outline: as §1
# [4] = biological target: Gal(b1-4)GlcNAc(b1-3)GalNAc
# Outline: as §1
# [5] = biological target: Gal(b1-4)GlcNAc(b1-3)[Fuc(a1-3)GlcNAc(b1-6)]Gal(b1-4)Glc
# Outline: as §1
# [6] = biological target: Gal(b1-4)GlcNAc(b1-3)[Gal(b1-4)GlcNAc(b1-6)]Gal(b1-4)GlcNAc
# Outline: as §1
# [7] = biological target: Gal(b1-4)GlcNAc(b1-3)[GlcNAc(b1-6)]Gal(b1-4)GlcNAc
# Outline: as §1
# [8] = biological target: Gal(b1-4)GlcNAc(b1-6)Gal(b1-4)GlcNAc
# Outline: as §1
# [9] = biological target: Gal(b1-4)GlcNAc(b1-6)GalNAc
# Outline: as §1
# [10] = biological target: Gal(b1-4)GlcNAc(b1-6)[Gal(b1-3)]GalNAc
# Outline: as §1
# [11] = biological target: Gal(b1-4)GlcNAc(b1-6)[Gal(b1-4)GlcNAc(b1-3)]GalNAc
# Outline: as §1
# [12] = biological target: Gal(b1-4)GlcNAc6P
# Outline: as §1
# [13] = biological target: Gal(b1-6)Gal
# Outline: as §1
# [14] = biological target: Gal3S(b1-3)GalNAc
# Outline: as §1
# [15] = biological target: Gal3S(b1-3)GlcNAc
# Outline: as §1
# [16] = biological target: Gal3S(b1-3)[Fuc(a1-4)]GlcNAc
# Outline: as §1
# [17] = biological target: Gal3S(b1-4)Glc
# Outline: as §1
# [18] = biological target: Gal3S(b1-4)Glc6S
# Outline: as §1
# [19] = biological target: Gal3S(b1-4)GlcNAc
# Outline: as §1
# [20] = biological target: Gal3S(b1-4)[Fuc(a1-3)]Glc6S
# Outline: as §1
# [21] = biological target: Gal3S(b1-4)[Fuc(a1-3)]GlcNAc
# Outline: as §1
# [22] = biological target: Gal3S(b1-4)[Fuc(a1-3)]GlcNAc6S
# Outline: as §1
# [23] = biological target: Gal3S4S(b1-4)GlcNAc
# Outline: as §1
# [24] = biological target: Gal3S6S(b1-4)GlcNAc
# Outline: as §1
# [25] = biological target: Gal3S6S(b1-4)GlcNAc6S
# Outline: as §1
# [26] = biological target: Gal4S(b1-4)GlcNAc
# Outline: as §1
# [27] = biological target: Gal4S6S(b1-4)GlcNAc
# Outline: as §1
# [28] = biological target: Gal6P(b1-4)GlcNAc
# Outline: as §1
# [29] = biological target: Gal6S(b1-3)GlcNAc
# Outline: as §1
# [30] = biological target: Gal6S(b1-3)GlcNAc6S
# Outline: as §1
# [31] = biological target: Gal6S(b1-4)Glc
# Outline: as §1
# [32] = biological target: Gal6S(b1-4)Glc6S
# Outline: as §1
# [33] = biological target: Gal6S(b1-4)GlcNAc
# Outline: as §1
# [34] = biological target: Gal6S(b1-4)GlcNAc6S
# Outline: as §1
# [35] = biological target: GalNAc(a1-3)Gal
# Outline: as §1
# [36] = biological target: GalNAc(a1-3)GalNAc
# Outline: as §1
# [37] = biological target: GalNAc(a1-3)GalNAc(b1-3)Gal(a1-4)Gal(b1-4)Glc
# Outline: as §1
# [38] = biological target: GalNAc(a1-3)GalNAc(b1-3)Gal(a1-4)Gal(b1-4)GlcNAc
# Outline: as §1
# [39] = biological target: GalNAc(b1-3)Gal
# Outline: as §1
# [40] = biological target: GalNAc(b1-3)Gal(a1-4)Gal(b1-4)GlcNAc
# Outline: as §1
# [41] = biological target: GalNAc(b1-3)Gal(a1-4)Gal(b1-4)GlcNAc(b1-3)Gal(b1-4)Glc
# Outline: as §1
# [42] = biological target: GalNAc(b1-3)Gal(a1-6)Gal(b1-4)Glc
# Outline: as §1
# [43] = biological target: GalNAc(b1-3)GalNAc
# Outline: as §1
# [44] = biological target: GalNAc(b1-3)GlcNAc
# Outline: as §1
# [45] = biological target: GalNAc(b1-4)Gal(b1-4)Glc
# Outline: as §1
binder,measurement,setting,value
B1,glycan array binding signal (z-score),[1],-0.31
same,glycan array binding signal (z-score),[2],-0.269
same,glycan array binding signal (z-score),[3],-0.165
same,glycan array binding signal (z-score),[4],-0.377
same,glycan array binding signal (z-score),[5],-0.538
same,glycan array binding signal (z-score),[6],-0.65
same,glycan array binding signal (z-score),[7],1.84
same,glycan array binding signal (z-score),[8],1.21
same,glycan array binding signal (z-score),[9],-0.908
same,glycan array binding signal (z-score),[10],-0.512
same,glycan array binding signal (z-score),[11],2.3
same,glycan array binding signal (z-score),[12],-0.362
same,glycan array binding signal (z-score),[13],-0.809
same,glycan array binding signal (z-score),[14],0.536
same,glycan array binding signal (z-score),[15],0.703
same,glycan array binding signal (z-score),[16],0.769
same,glycan array binding signal (z-score),[17],0.137
same,glycan array binding signal (z-score),[18],0.102
same,glycan array binding signal (z-score),[19],-0.02
same,glycan array binding signal (z-score),[20],-0.341
same,glycan array binding signal (z-score),[21],-0.299
same,glycan array binding signal (z-score),[22],-0.109
same,glycan array binding signal (z-score),[23],0.495
same,glycan array binding signal (z-score),[24],-0.128
same,glycan array binding signal (z-score),[25],4.88
same,glycan array binding signal (z-score),[26],-0.419
same,glycan array binding signal (z-score),[27],0.517
same,glycan array binding signal (z-score),[28],0.775
same,glycan array binding signal (z-score),[29],-0.43
same,glycan array binding signal (z-score),[30],0.173
same,glycan array binding signal (z-score),[31],-0.736
same,glycan array binding signal (z-score),[32],-0.612
same,glycan array binding signal (z-score),[33],4.2
same,glycan array binding signal (z-score),[34],2.1
same,glycan array binding signal (z-score),[35],-1.38
same,glycan array binding signal (z-score),[36],-0.29
same,glycan array binding signal (z-score),[37],0.368
same,glycan array binding signal (z-score),[38],-0.106
same,glycan array binding signal (z-score),[39],-0.333
same,glycan array binding signal (z-score),[40],-0.186
same,glycan array binding signal (z-score),[41],-0.857
same,glycan array binding signal (z-score),[42],0.018
same,glycan array binding signal (z-score),[43],-0.995
same,glycan array binding signal (z-score),[44],-1.21
same,glycan array binding signal (z-score),[45],-0.182

# A different layout for some results above:
binder	measurement	setting	value
B1	glycan array binding signal (z-score)	[7]	1.84
same	glycan array binding signal (z-score)	[10]	-0.512
same	glycan array binding signal (z-score)	[16]	0.769
same	glycan array binding signal (z-score)	[41]	-0.857
